This is one part of the list. These are further read-outs of the screen, such as a control signal, another cell line or another target. No call is given for them. The list favours compounds with an active or inconclusive main result. Potencies come from curve fits of mixed quality, noted in brackets.
Test: qHTS Assay for Lipid Storage Modulators in Drosophila S3 Cells;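 as to cell number change: cells counted by Cell Tracker Red CMTPX staining in the red channel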
Settings: BODIPY lipid droplet fluorescence, 18-24 h; for cell number change: measured here: cell count max response, cells fed with added oleic acid
Outline: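 Laser-scanning cytometry quantifies lipid droplet accumulation (500–530 nm total intensity; droplet/cell object ratio) in oleic acid-fed (400 uM added) Drosophila S3 cells treated with a concentration series. 20 uM Triacsin C defined 100% inhibition.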

[1] = measured here: lipid fluorescence (Fed channel) AC50, cells fed with added oleic acid
[2] = measured here: cell number channel AC50, cells fed with added oleic acid

Compound | AC50 [1] | cell number change [%] | AC50 [2]
CCOC(=O)c1oc2cc(O)c(CC)cc2c(=O)c1-c1cscn1 | 0.291 µM [falling, full curve] |  | 
CCn1c(=O)n(CC)c2cc(NC(=O)CSc3ccc([N+](=O)[O-])cn3)ccc21 | 10.3 µM [rising, partial curve, poor fit] | 20.9 | 
Cc1c(C(=O)N2CCN(c3ncccn3)CC2)oc2c(Cl)cccc12 |  | 15.3 | 2.06 µM [rising, partial curve]
Cc1ccn2c(c1)nc(=O)c1cc(S(=O)(=O)N3CCC(C)CC3)ccc12 |  | -5.97 | 
CCOc1ccc(C(C(=O)NC(C)(C)C)N(CCOC)C(=O)CCC(=O)Nc2nccs2)cc1 (stereo unspecified) | 6.51 µM [rising, single point] |  | 
Cc1ccc(C)n1-c1ccc(C(=O)N/N=C/c2ccncc2)cc1 | 16.4 µM [falling, partial curve] | -10.3 | 
Cc1cc(C)c(NC(=O)/C=C\C(=O)O)c([N+](=O)[O-])c1 | 14.6 µM [falling, single point] | -22.8 | 
CCn1c2ccccc2c2cc(CNCc3ccc(OC)cc3OC)ccc21 | 18.4 µM [falling, single point] | -68.6 | 18.4 µM [falling, single point]
Clc1ccccc1/C=N/NC1=Nc2cccc3cccc1c23 | 16.4 µM [falling, partial curve, poor fit] | -60.9 | 29.1 µM [falling, single point]
CCOC(=O)NC(NC(=S)Nc1ccccc1[N+](=O)[O-])C(Cl)(Cl)Cl (stereo unspecified) | 1.03 µM [falling, full curve, poor fit] | -2.29 | 
COc1ccc(OC)c(-n2nnnc2SCC(=O)Nc2ccc3c(c2)OCCO3)c1 |  | -5.97 | 
Cc1cccc(C(=O)N2CCC(N3CCC(C(=O)N4CCOCC4)CC3)CC2)c1 |  | -14.4 | 0.103 µM [rising, full curve, poor fit]
COc1cccc(NC(=O)COC(=O)c2ccc(S(=O)(=O)NCc3ccco3)cc2)c1 |  | -31.7 | 0.731 µM [falling, full curve]
O=C(O)CC1(CC(=O)Nc2ccc(F)cc2F)CCCCC1 | 3.66 µM [falling, full curve, poor fit] | -18.6 | 4.11 µM [falling, single point]
CCOC(=O)c1cccc(NS(=O)(=O)c2c(C)[nH]c(C)c2C(=O)N2CCCC2)c1 |  | -78.2 | 29.1 µM [falling, single point]
COc1ccc(Cn2cccc(NC(=O)Nc3cccc(C#N)c3)c2=O)cc1 | 16.4 µM [falling, partial curve] | -35.1 | 16.4 µM [falling, partial curve]
Cc1ccc(Sc2ccc(C(=O)NC(C)C)cc2[N+](=O)[O-])cc1 | 25.9 µM [rising, single point] | -16.2 | 0.13 µM [falling, full curve, poor fit]
Cc1cc(NC(=O)C(C)Oc2ccc(C(C)(C)C)cc2)no1 (stereo unspecified) | 29.1 µM [rising, single point] | 9.48 | 
Cc1ccc(C(=O)N/C(=C\C=C\c2ccccc2)C(=O)NCc2ccco2)cc1 |  | 28.6 | 
CSc1ncc(S(=O)(=O)c2ccccc2)c(=O)[nH]1 | 18.4 µM [falling, single point] | -52.6 | 18.4 µM [falling, single point]

3 records drawn at random from those above, as already listed:
Compound | AC50 [1] | cell number change [%] | AC50 [2]
Cc1ccc(C)n1-c1ccc(C(=O)N/N=C/c2ccncc2)cc1 | 16.4 µM [falling, partial curve] | -10.3 | 
Cc1cc(C)c(NC(=O)/C=C\C(=O)O)c([N+](=O)[O-])c1 | 14.6 µM [falling, single point] | -22.8 | 
CCOC(=O)c1cccc(NS(=O)(=O)c2c(C)[nH]c(C)c2C(=O)N2CCCC2)c1 |  | -78.2 | 29.1 µM [falling, single point]

Next part.

Compound | AC50 [1] | cell number change [%] | AC50 [2]
CNC(=O)CN(C)S(=O)(=O)c1ccc(OC)c(Cl)c1 | 4.11 µM [falling, full curve, poor fit] | -17.6 | 0.291 µM [falling, partial curve, poor fit]
COc1ccc(-c2nc(-c3ccccc3)no2)c(OC)c1 | 6.51 µM [rising, single point] |  | 
CC(=O)c1sc2nc(SCC(=O)NCCc3ccccc3)[nH]c(=O)c2c1C | 0.58 µM [falling, full curve, poor fit] | 1.47 | 
Cc1ccc(S(=O)(=O)NNC(=O)Nc2ccc(C)c(C)c2)c(C)c1 | 2.31 µM [rising, full curve, poor fit] | -3.47 | 
CCc1cc(=O)oc2cc(C)cc(OCC(=O)C(C)(C)C)c12 |  | -22.8 | 
CSc1ccccc1NC(=O)c1ccc([N+](=O)[O-])cc1 | 25.9 µM [rising, single point] | -19.8 | 
CSc1cccc(NC(=O)c2sc3nc4n(c(=O)c3c2C)CCC4)c1 | 2.31 µM [falling, full curve, poor fit] | 20.1 | 2.91 µM [falling, single point]
CCOC(=O)c1ccc(NC(=S)N(CCN2CCCCCC2)Cc2cccs2)cc1 |  |  | 6.51 µM [rising, single point]
Cc1ccc(C(=O)CCC(=O)NC2=NCCS2)cc1 | 0.13 µM [rising, full curve, poor fit] | 42.1 | 16.4 µM [rising, single point]
Cc1ccc(-c2cc(C(=O)Nc3sc4c(c3C(=O)NCc3ccco3)CCC4)[nH]n2)c(O)c1 |  | 38.2 | 0.92 µM [rising, full curve]
O=C(O)CCCC(=O)NS(=O)(=O)c1ccc(Cl)cc1 | 8.2 µM [falling, partial curve] | -62.2 | 13 µM [falling, partial curve, poor fit]
Cc1cc(C)c(S(=O)(=O)Nc2ccccc2C(=O)N2CCOCC2)c(C)c1 | 18.4 µM [falling, partial curve, poor fit] |  | 
COC(=O)c1c(C)oc(C)c1S(=O)(=O)NC(c1ccccc1)c1ccccc1 |  | 13.2 | 0.231 µM [falling, full curve, poor fit]
Cc1ccc(C(=O)COC(=O)c2ccc3c(c2)C(=O)N(c2cccc4ncccc24)C3=O)cc1 | 32.6 µM [falling, single point] | -23.6 | 
COc1cccc(CNS(=O)(=O)c2c(C(=O)N3CCCC3)c(C)n(C)c2C)c1 |  | -1.18 | 
Cc1ccc(OCC(=O)Nc2ccc(-n3cnnn3)cc2)c(C)c1 |  | 50.6 | 11.6 µM [rising, partial curve]
COC(=O)Cn1c(=O)c(C)nc2ccccc21 |  | -10.3 | 
CCOC(=O)C1CCN(c2nc3ccccc3nc2C(C#N)C(=O)OC(C)C)CC1 (stereo unspecified) | 32.6 µM [rising, single point] | 1.37 | 
COc1ccc(Cl)cc1C(=O)NNC1CC(=O)N(Cc2ccc(Cl)cc2)C1=O (stereo unspecified) |  | 5.26 | 
Cc1csc(NC(=O)Nc2ccccc2[N+](=O)[O-])n1 |  | 6.37 | 1.46 µM [falling, partial curve]

Compound | AC50 [1] | cell number change [%] | AC50 [2]
N#Cc1c(Nc2cccc(F)c2)sc2c(O)cc(=O)[nH]c12 | 2.59 µM [rising, partial curve] | -0.88 | 
COC(=O)Nc1ccc(S(=O)(=O)N2CCN(C)CC2)cc1 | 0.291 µM [falling, full curve] | -12.6 | 0.58 µM [falling, full curve, poor fit]
Cc1c(C(=O)Nc2ccccc2F)sc2nc3n(c(=O)c12)CCC3 | 5.17 µM [falling, full curve] | -79.2 | 13 µM [falling, partial curve]
C/C=C/C(=O)OCc1csc(CC(=O)Nc2ccccc2C)n1 |  | 14.1 | 
CC1C(=O)N2CCCc3cc(S(=O)(=O)NCc4ccc(Cl)cc4)cc1c32 (stereo unspecified) |  | 17.2 | 
Cc1nn(Cc2ccccc2)c(C)c1/C=N/NC(=O)c1ccccc1O |  | 24.4 | 
CN(Cc1ccon1)C(=O)C1CCC(=O)N(Cc2ccc(Cl)cc2)C1 (stereo unspecified) | 32.6 µM [rising, partial curve] | 26.2 | 
Cn1c(N2CCOCC2)nc(-c2ccccc2)c1-c1ccccc1 |  | 43.4 | 14.6 µM [rising, single point]
Cc1ccnn1CC(=O)N/N=C/c1ccc2c(c1)OCO2 | 0.00731 µM [rising, full curve, poor fit] | 0.563 | 
CCn1c(C)nc2cc(C(=O)NNC(=O)CCC3CCCCC3)ccc21 | 0.164 µM [falling, partial curve, poor fit] | -1.05 | 
Cc1ccc(NC(=S)NNC(=S)Nc2ccc(C)cc2C)cc1 | 29.1 µM [falling, single point] | -13.9 | 
CC(=O)N1N=C(c2ccccc2)CC1c1cn(C)c2ccccc12 (stereo unspecified) |  |  | 6.51 µM [rising, partial curve, poor fit]
Cc1cc(NC(=O)c2cc(-c3ccc(OC(C)C)cc3)nc3ccccc23)no1 | 29.1 µM [rising, single point] |  | 
CCOC(=O)N1CCN(C(=O)Nc2ccc(Cl)cc2)CC1 |  |  | 2.31 µM [rising, partial curve]
CCOc1ccc(Cn2nnc(C(=O)NCCc3ccc(Cl)cc3)c2N)cc1 | 0.146 µM [falling, full curve, poor fit] |  | 
CCC(CC)NC(=O)CO/N=C/c1ccccc1OC(F)F | 2.59 µM [rising, partial curve] |  | 
O=c1c2ccc([N+](=O)[O-])cc2ncn1CCOc1ccccc1 | 16.4 µM [falling, single point] | -1.29 | 
O=C(N/N=C/c1cccc(OC(=O)N2CCOCC2)c1)c1cccs1 | 10.3 µM [falling, partial curve] | -30.1 | 18.4 µM [falling, single point]
Cc1ccc(S(=O)(=O)N=S(CC2CC2(Cl)Cl)CC2CC2(Cl)Cl)cc1 (stereo unspecified) |  | -45 | 29.1 µM [falling, single point]
